These are yes or no findings as the source states them, for the method shown. Binding calls can cover weak binding; strength is not graded here.
Biological target: Srs2 fused with the DNA binding domain of Gal4 (S. cerevisiae) (UniProt P12954)
Assay: two-hybrid; Rad52 or Rad51 fused to the Gal4 activating domain, Srs2 or its fragments fused to the Gal4 DNA binding domain; strain PJ69 and a Δrad51 derivative; HIS3 under a Gal4-dependent promoter, growth on medium lacking leucine, tryptophan and histidine; 3 to 5 days at 30°C

Chains of the proteins cited; added tags and fusions are not shown.
UniProt P25454: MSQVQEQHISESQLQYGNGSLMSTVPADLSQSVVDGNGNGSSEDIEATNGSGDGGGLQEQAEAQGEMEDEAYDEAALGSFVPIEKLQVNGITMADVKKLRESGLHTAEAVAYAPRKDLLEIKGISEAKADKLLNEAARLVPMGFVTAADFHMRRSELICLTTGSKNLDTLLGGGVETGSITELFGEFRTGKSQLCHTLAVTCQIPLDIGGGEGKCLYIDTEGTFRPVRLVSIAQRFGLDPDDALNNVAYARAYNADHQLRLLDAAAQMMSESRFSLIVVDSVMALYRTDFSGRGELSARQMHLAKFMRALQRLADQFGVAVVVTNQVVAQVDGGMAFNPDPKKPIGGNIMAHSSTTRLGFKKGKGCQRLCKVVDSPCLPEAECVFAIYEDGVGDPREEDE

binding: binds
Substance: Rad51 fused with the transcription-activating domain of Gal4 (from UniProt P25454 1-400)
